Test results taken from PMC12166091.
No constants are given. Whether binding was seen depends on the method and setting. In cells and extracts the contact can be indirect. Some entries that bind do so weakly or less than the wild type.

Protein sequences, listed by entry. Tags and fused reporters are not part of them.
UniProt Q96I24: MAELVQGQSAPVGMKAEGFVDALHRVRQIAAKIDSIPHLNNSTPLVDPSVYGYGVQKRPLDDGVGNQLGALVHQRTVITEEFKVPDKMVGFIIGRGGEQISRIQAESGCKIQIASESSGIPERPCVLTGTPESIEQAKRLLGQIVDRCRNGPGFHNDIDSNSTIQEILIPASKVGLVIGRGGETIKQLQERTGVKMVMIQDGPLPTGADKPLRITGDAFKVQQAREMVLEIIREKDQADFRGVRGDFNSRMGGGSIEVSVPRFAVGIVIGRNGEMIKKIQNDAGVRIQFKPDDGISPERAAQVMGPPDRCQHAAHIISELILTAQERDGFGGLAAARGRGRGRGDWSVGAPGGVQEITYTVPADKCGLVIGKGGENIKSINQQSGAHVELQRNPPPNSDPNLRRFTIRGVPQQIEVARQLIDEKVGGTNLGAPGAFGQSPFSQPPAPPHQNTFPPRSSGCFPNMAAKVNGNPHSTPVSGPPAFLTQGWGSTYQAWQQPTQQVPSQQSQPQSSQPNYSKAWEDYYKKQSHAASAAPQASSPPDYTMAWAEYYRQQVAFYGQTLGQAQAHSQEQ

Target: Shiftless (SFL), isoform 1, C-terminal Flag-tagged (human) (UniProt Q9NUL5)
Assay: pull-down; pull-down assay with SFL (Supplementary Fig. S4g); methods not shown

Row | binding | Substance
1 | binds | Far Upstream Element Binding Protein 3 (FUBP3), of the cell lysate (from UniProt Q96I24 1-572)
2 | binds | Stem Loop Binding Protein (SLBP), of the cell lysate (from UniProt Q14493 1-270)
